# Primary screen of a compound library

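Phenotypic screen: M. tuberculosis growth, cholesterol and DPPC medium, 4 days; the read-out is not stated. Tested at 50 µM. Direction is inferred from retests: higher values go with more growth inhibition. Of about 69,000 compounds tested this way, about 370 (0.54%) reached 50% or more in at least one test.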

Each number is a percent effect as filed. The record does not define 0% and 100%; most values in the screen are far below 50% and negative numbers occur (in some assays of this library far below -100). Compounds were drawn at random from those tested, without regard to their results. Two or more numbers in one place are separate tests of the same structure; such repeats can differ widely.

For CCNC(=O)[C@@H]1C[C@H](N)CN1C1CCN(c2ccccc2OC)CC1 the result was 2.56%.
For Cc1cnc(CN2CCCC(c3cc(C(F)(F)F)[nH]n3)C2)cn1 (stereo not drawn) the result was 16.37%.
For Cc1nccn1CC1CCCN(S(=O)(=O)c2cnn(C)c2)C1 (stereo not drawn) the result was 8.587%.
For COCC1COCCC12CCN(S(=O)(=O)c1ccc(C)cc1)CC2 (stereo not drawn) the result was -5.338%.
For C=C(C)CNCC1(O)CCCN(Cc2ccc(F)c(F)c2)C1=O (stereo not drawn) the result was -0.7802%.
For CNC(=O)C(C)CN(C)C(=O)Nc1ccc(F)c(-n2cccc2)c1 (stereo not drawn) the result was -11.26%.
For CCc1nc2c(c(NCc3cc(-c4cccnc4)no3)n1)CCNCC2 the result was -15.21%.
For CNC(=O)C1CN(C(=O)c2cccnc2)CCN(S(C)(=O)=O)C1 (stereo not drawn) the result was 12.42% & 2.344%.
For CCc1nc(CN(C)C2CCN(CCc3cccs3)C2)no1 (stereo not drawn) the result was -17.67%.
For O=c1oc(-c2cccs2)nn1CC(O)c1ccccc1 (stereo not drawn) the result was -19.7%.
For N#CC1(c2ccccc2)CCN(C(=O)CN2C(=O)CCNC2=O)CC1 the result was -2.819% & -8.133%.
For CCC(CO)N(Cc1cccnc1)C(=O)c1ccoc1C (stereo not drawn) the result was 2.804%.
For COc1ccsc1C(=O)Nc1cc(CN2CCOCC2)ccc1C the result was 13.61%.
For Cc1nn(C)c(C)c1C1COCCN1C(=O)c1ccccc1 (stereo not drawn) the result was -0.4438%.
For C1CCC(CNC2CCSCC2)(N2CCOCC2)CC1 the result was 6.676%.
For COC1COC2(CCN(CC3CC3)CC2)C1.O=C(O)C(F)(F)F (stereo not drawn) the result was -0.004241%.
For O=C(NCc1ccco1)N1CCC(n2cc(-c3ccccn3)nn2)CC1 the result was -15.4%.
For NC(=O)C1CCCN1Cc1ccccc1NC(=O)CC(F)(F)F (stereo not drawn) the result was 9.326%.
For COc1ccc(C)cc1NC(=O)Nc1cnc(N2CCOCC2)nc1 the result was 14.96%.
For COCCN1C(=O)CC[C@]12CC[C@@H](NC(=O)c1cnccn1)CC2 the result was 20.76%.
For O=C(NCCN1CCOCC1)NCc1ccccc1-n1cccn1 the result was 0.3054%.
For CN(C)c1nc(N)nc(CN2CCCC2c2cccs2)n1 (stereo not drawn) the result was -8.471%.
For Cc1ccc(NC(=O)NCCc2ccncc2C)c(N(C)C)n1 the result was -2.042%.
For CCOCCC1(CNC(=O)c2ccncc2)CCC1 the result was 1.368%.
For CC(C(=O)NCCN1CCCCC1)n1cncn1 (stereo not drawn) the result was -5.298%.
For COCCOc1ccc(CNc2nc3ccccc3nc2N)cn1 the result was -1.833%.
For CS(=O)(=O)c1ccc(NC(=O)NC2(c3cccc(F)c3)CC2)cc1 the result was -6.793%.
For Cc1ccc(C(=O)N2CCCC(c3[nH]ncc3S(C)(=O)=O)C2)s1 (stereo not drawn) the result was -22.82%.
For COCCCN(C)C(=O)c1cccc(Nc2cnccn2)c1 the result was 11.72%.
For CSCCC(NC(=O)C1CC1)C(=O)N(C)Cc1ccsc1 (stereo not drawn) the result was 0.653%.
For Cc1nc(N)ncc1C(=O)N1CCCC(CCc2ccccc2F)C1 (stereo not drawn) the result was 5.931%.
For Cc1nn(C)c(N2CCOCC2)c1CNC(c1cccs1)C(C)C (stereo not drawn) the result was 2.726%.
For Cc1ccc(F)c(S(=O)(=O)NCc2cccc(C(=O)N3CCCC3)c2)c1 the result was -18.81%.
For CN(CCCOc1ccccc1)Cc1nc2c(cnn2C)c(=O)[nH]1 the result was 0.4439%.
For Cc1ncsc1CCNC(=O)Cn1nc(C)n(Cc2ccccc2)c1=O the result was 32.3% & -31.17%.
For COc1ccc(-c2noc(Cn3cc4c(n3)CCC4)n2)c(OC)c1OC the result was -7.341% & 3.522%.
For COCCO[C@H]1COCCN(C2CCN(C)CC2)C1 the result was -22.24%.
For c1ccc(OCC2CC3(CCN(Cc4ccncc4)CC3)CO2)nc1 (stereo not drawn) the result was 5.71%.
For N#Cc1cccc(C(=O)N2CCC3(CCC(=O)N(C4CC4)C3)CC2)c1 the result was 0.8676%.
For CCN1C(=O)C(c2ccccc2)CC12CCN(c1ncccn1)CC2 (stereo not drawn) the result was -7.791%.
For [H][C@@]12CCN(S(C)(=O)=O)C[C@@]1([H])O[C@H](C(=O)N1CCOCC1)C2 the result was -3.901%.
For CCOC(=O)c1nc(CC(=O)Nc2ccc3cc[nH]c3c2)no1 the result was 15.06%.
For O=C(C1SCCc2sccc21)N1CCN(C2CC2)C(=O)C1 (stereo not drawn) the result was 5.937%.
For [H][C@@]12C[C@H](C(=O)Nc3cccnc3)[C@@]([H])(CN(S(=O)(=O)C3CC3)C1)O2 the result was 21.09% & -3.526%.
For COc1ccc(C(C)NC(=O)Cn2ccc(=O)n(C)c2=O)cc1OC (stereo not drawn) the result was 20.04%.
For Cc1nn(C)c2c(=O)n(C)c(NCC3CCCO3)nc12 (stereo not drawn) the result was 3.506%.
For CCn1cc(N)c(C(=O)NCc2cnn(C)c2)n1 the result was -16.52%.
For CCOCCN1CCN(CC(=O)N2CCCC2)CC1C (stereo not drawn) the result was -4.93%.
For Cc1cc(C)n(CC2CN(Cc3cccc(C(N)=O)c3)CCO2)n1 (stereo not drawn) the result was 9.477% & -13.66%.
For CCN1CCN(C)C2(CCN(Cc3ccsc3)CC2)C1=O.O=C(O)C(F)(F)F.O=C(O)C(F)(F)F the result was -5.262% & -12.53%.
For [H][C@@]12C[C@@H](C)O[C@]1([H])CN(S(=O)(=O)c1ccc(F)cc1)C2 the result was -7.436%.

6 of the entries, repeated:

{"structure": "Cc1ccc(C(=O)N2CCCC(c3[nH]ncc3S(C)(=O)=O)C2)s1", "stereo": "stereo not drawn", "percent effect": -22.82}
{"structure": "CSCCC(NC(=O)C1CC1)C(=O)N(C)Cc1ccsc1", "stereo": "stereo not drawn", "percent effect": 0.653}
{"structure": "Cc1nccn1CC1CCCN(S(=O)(=O)c2cnn(C)c2)C1", "stereo": "stereo not drawn", "percent effect": 8.587}
{"structure": "CCOC(=O)c1nc(CC(=O)Nc2ccc3cc[nH]c3c2)no1", "percent effect": 15.06}
{"structure": "CCC(CO)N(Cc1cccnc1)C(=O)c1ccoc1C", "stereo": "stereo not drawn", "percent effect": 2.804}
{"structure": "O=c1oc(-c2cccs2)nn1CC(O)c1ccccc1", "stereo": "stereo not drawn", "percent effect": -19.7}

Measurements from “University of Dundee, Small-Polar-MMV Screening Library” (2021), ChEMBL document CHEMBL3988442.